Source: the supplement of paper PMC7877785
± gives the uncertainty stated by the source. The uncertainty is large for many entries.

Assay: self-splicing fitness, log relative to wild type (ln ratio); higher = more splicing; Tetrahymena group I intron in knt gene, E. coli kanamycin selection, DiMSum; sequences stand for … in CUCUCU…GGAGGGAAAAGUUAUCAGGCAUGCACCUGGUAGCUAGUCUUUAAACCAAUAGAUUGCAUCGGUUUAAAAGGCAAGACCGUCAAAUUGCGGGAAAGGGGUCAACAGCCGUUCAGUACCAAGUCUCAGGGGAAACUUUGAGAUGGCCUUGCAAAGGGUAUGGUAAUAAGCUGACGGACAUGGUCCUAACCACGCAGCCAAGUCCUAAGUCAACAGAUCUUCUGUUGAUAUGGAUGCAGUUCACAGACUAAAUGUCGGUCGGGGAAGAUGUAUUCUUCUCAUAAGAUAUAGUCGGACCUCUCCUUAAUGGGAGCUAGCGGAUGAAGUGAUGCAACACUGGAGCCGCUGGGAACUAAUUUGUAUGCGAAAGUAUAUUGAUUAGUUUUGGAGUACUCGUGGUCG
Outline: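 Six replicate transformations of E. coli BL21(DE3) with a pET-22b(+) library were grown overnight at 37°C or 30°C. The library randomised all eight P1ex-region intron nucleotides, the intron lying in the knt kanamycin-resistance gene, and plates were LB agar with or without 25 μg/mL kanamycin plus 100 μg/mL carbenicillin, 50 μM IPTG and 0.2% rhamnose. Pooled colonies were amplicon-sequenced on an Illumina HiSeq 2500, and fitness is the DiMSum error-weighted combination of wild-type-normalised replicate fold changes, kanamycin versus none.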

Sequence | self-splicing fitness (ln) (30 °C) | self-splicing fitness (ln) (37 °C)
UCUGAGCAAUAUUACGAUAU | -4.15 ± 0.51 | -2.79 ± 1.1
GAUGAGCAAUAUUACGAUCU | -2.62 ± 0.76 | 
CGUCAGCAAUAUUACGGUUU | -2.39 ± 0.098 | -1.97 ± 0.097
GAUGAGCAAUAUUACGUGCU |  | -2.85 ± 0.53
UUAGAGCAAUAUUACGCGAC |  | -2.76 ± 0.61
UGAGAGCAAUAUUACGUAGC | -3.46 ± 1.1 | 
UCAGAGCAAUAUUACGUCGU | -2.89 ± 0.24 | -0.54 ± 0.24
CCGUAGCAAUAUUACGUCAA | -3.98 ± 0.72 | 
AUGAAGCAAUAUUACGACCC |  | 0.554 ± 0.53
GGUGAGCAAUAUUACGUUGC |  | -2.76 ± 0.61
GUAAAGCAAUAUUACGUGGU | -3.26 ± 0.12 | -1.11 ± 0.095
GUGAAGCAAUAUUACGAACC |  | 1.11 ± 1.1
CCUGAGCAAUAUUACGUCGC | -3.84 ± 0.74 | 
GUUGAGCAAUAUUACGACCG | -4.36 ± 1 | 
AUUUAGCAAUAUUACGGGAA | -2.24 ± 0.26 | -1.84 ± 0.19
UUUUAGCAAUAUUACGAUCG |  | -0.679 ± 0.5
GAUGAGCAAUAUUACGUGGU |  | -3.37 ± 0.52
AGAUAGCAAUAUUACGGGAC | -5.08 ± 0.71 | -3.18 ± 1
UUGCAGCAAUAUUACGAAUC | -2.66 ± 0.55 | 
AGCAAGCAAUAUUACGUCGC | -4.11 ± 0.59 | 
CAUGAGCAAUAUUACGCUAA | -4.01 ± 0.6 | 

Record cards, from the list above:
UGAGAGCAAUAUUACGUAGC in the list: self-splicing fitness (ln) (30 °C) = -3.46 ± 1.1
GUGAAGCAAUAUUACGAACC in the list: self-splicing fitness (ln) (37 °C) = 1.11 ± 1.1
CCGUAGCAAUAUUACGUCAA in the list: self-splicing fitness (ln) (30 °C) = -3.98 ± 0.72

Going on with the list:

Sequence | self-splicing fitness (ln) (30 °C) | self-splicing fitness (ln) (37 °C)
CAGUAGCAAUAUUACGUGGC | -2.97 ± 0.28 | -2.36 ± 0.29
CACGAGCAAUAUUACGCAAU | -4.23 ± 0.19 | -2.99 ± 0.16
GGGGAGCAAUAUUACGCGAA | -2.75 ± 0.4 | 0.457 ± 0.31
GCGAAGCAAUAUUACGCCAC | -4.49 ± 1 | 
CAAUAGCAAUAUUACGGCCC | -3.42 ± 0.73 | -1.74 ± 0.59
CGAGAGCAAUAUUACGCACU | -2.06 ± 0.2 | -1.89 ± 0.23
CGGUAGCAAUAUUACGAUAC |  | -3.63 ± 0.73
UUAUAGCAAUAUUACGCCGC | 0.209 ± 1 | 
GAUGAGCAAUAUUACGAAAG | -2.38 ± 0.51 | 
UAGGAGCAAUAUUACGCUAU | -2.36 ± 1.2 | 
CUCGAGCAAUAUUACGGGGG |  | -3.97 ± 0.59
GUAUAGCAAUAUUACGCAAC |  | 0.246 ± 0.58
UGGAAGCAAUAUUACGCAUC | -4.47 ± 0.59 | 
AUCCAGCAAUAUUACGGUCU | -0.68 ± 0.053 | -0.109 ± 0.074
UCCUAGCAAUAUUACGCAGC | -3.74 ± 0.62 | 
CGCGAGCAAUAUUACGCGCA | -3.97 ± 0.55 | 
GAAUAGCAAUAUUACGACGU | -0.363 ± 0.11 | 0.265 ± 0.13
GCGAAGCAAUAUUACGCCGA | -3.21 ± 1.1 | 
CCGCAGCAAUAUUACGUGCU |  | -3.49 ± 0.52
GGGUAGCAAUAUUACGUUAC | -4.67 ± 0.72 | 
UUCAAGCAAUAUUACGCUCC | -1.54 ± 0.16 | -1.86 ± 0.24

Sequence | self-splicing fitness (ln) (30 °C) | self-splicing fitness (ln) (37 °C)
GGGUAGCAAUAUUACGUGUA | -0.214 ± 0.12 | -0.897 ± 0.14
CCUGAGCAAUAUUACGUAAA | -5.76 ± 1 | 
AAUGAGCAAUAUUACGGAGU | -2.31 ± 0.52 | 
UAUGAGCAAUAUUACGAGUC | -3.52 ± 0.74 | 
AGCGAGCAAUAUUACGCGCU |  | -1.36 ± 0.53
GGUCAGCAAUAUUACGCUGG |  | -1.33 ± 1.2
GGUCAGCAAUAUUACGCGAU |  | -3.45 ± 0.52
CCGUAGCAAUAUUACGACUC | -2.62 ± 0.62 | -2.09 ± 0.56
UAGUAGCAAUAUUACGAAGA | -2.81 ± 0.76 | -1.6 ± 0.53
CUAUAGCAAUAUUACGCACC |  | -0.675 ± 0.51
GUGUAGCAAUAUUACGCAAA | -1.52 ± 1.2 | -1.95 ± 0.57
GAGGAGCAAUAUUACGUCCC |  | -3.04 ± 0.75
GUCAAGCAAUAUUACGGAGG | -3.66 ± 0.52 | 
AGAGAGCAAUAUUACGGUAC | -2.29 ± 0.64 | 
UCAGAGCAAUAUUACGAAUC |  | -2.33 ± 0.78
CAUGAGCAAUAUUACGUCGC | -3.59 ± 0.29 | -2.13 ± 0.42
GAGUAGCAAUAUUACGCGAC | -3.51 ± 0.62 | -0.352 ± 0.78
CCAGAGCAAUAUUACGCUAC | -3.71 ± 0.74 | 
GGUAAGCAAUAUUACGCAGA | -2.89 ± 0.62 | 
CUUGAGCAAUAUUACGAUCU | -4 ± 1 | 
